{"source": "patent US10537521B2", "about": "(priority 2016, dated 2020)", "origin": "cited, not measured here", "key": {"[1]": {"test_system": "patients undergoing abdominal surgery", "conditions": "cited from earlier work; for patients assessing pain relief as excellent or good: 50 mg boluses as required"}, "[2]": {"test_system": "patients undergoing major abdominal gynecologic surgery", "conditions": "cited from earlier work"}, "[3]": {"test_system": "patients undergoing abdominal surgery", "conditions": "initial tramadol 100 mg or morphine 5 mg i.v., repeat tramadol 50 mg or morphine 5 mg on demand; cited from earlier work"}, "[4]": {"conditions": "tramadol infusion 15 mg/h, additional 100 mg boluses as requested"}}, "note": "Where a name gives a salt, the structure may show the parent alone. Read-outs that look alike come from different tables or passages of the source. For at least one compound, name, drawing or mass did not settle the structure.", "data": [{"compound": "COc1cccc([C@]2(O)CCCC[C@H]2CN(C)C)c1", "note": "(racemic) [Tramadol, (±)cis-2-[(dimethylamino)methyl]-1-(3-methoxyphenyl) cyclohexanol hydrochloride]", "values": [{"measurement": "patients assessing pain relief as excellent or good", "setting": "[1]; bolus group: 100 mg i.v. loading, placebo infusion", "value": 65.6, "unit": "%"}, {"measurement": "average tramadol consumption after 6 hours", "setting": "[1]; bolus group", "value": "176.6 ± 63.1", "unit": "mg"}, {"measurement": "patients reporting inadequate pain relief", "setting": "[1]; bolus group", "value": 7.5, "unit": "%"}, {"measurement": "patients requiring two or more boluses", "setting": "[1]; bolus group", "value": 59.7, "unit": "%"}, {"measurement": "tramadol consumption after 24 hours", "setting": "[1]; bolus group", "value": "201.6 ± 83.9", "unit": "mg"}, {"measurement": "patients assessing pain relief as excellent or good", "setting": "[1]; infusion group: 100 mg i.v. loading, 12 mg/h for 24 hours", "value": 76.5, "unit": "%"}, {"measurement": "average tramadol consumption after 6 hours", "setting": "[1]; infusion group", "value": "223.5 ± 53.7", "unit": "mg"}, {"measurement": "patients reporting inadequate pain relief", "setting": "[1]; infusion group", "value": 4.4, "unit": "%"}, {"measurement": "patients requiring two or more boluses", "setting": "[1]; infusion group", "value": 30.8, "unit": "%"}, {"measurement": "tramadol consumption after 24 hours", "setting": "[1]; infusion group", "value": "449.5 ± 66.0", "unit": "mg"}, {"measurement": "patients in whom tramadol was ineffective as pain relief within 2 hours of the beginning of treatment", "setting": "[2]; bolus group", "value": 20, "unit": "%"}, {"measurement": "patients in whom tramadol was ineffective as pain relief within 2 hours of the beginning of treatment", "setting": "[2]; infusion group", "value": 6, "unit": "%"}, {"measurement": "increase of total tramadol consumption, infusion group vs saline infusion group", "setting": "[2]; [4]", "value": "about 30%"}, {"measurement": "reduction of tramadol required on demand, infusion group vs saline infusion group", "setting": "[2]; [4]", "value": 60, "unit": "%"}, {"measurement": "responder rate (no or slight pain) within the first 90 minutes of treatment", "setting": "[3]", "value": 72.6, "unit": "%"}]}]}
